Measurements from US20210040177A1.
Results are given in words; binding and its absence hold for the method and conditions named. Some entries that bind do so weakly or less than the wild type.

Experiments:
[1] = biological target: B7-1-Fc (R&D Systems Cat #140-B1) (UniProt P33681); assay: SPR; B7-1-Fc injected over molecule held on immobilised lysozyme
[2] = biological target: B7-1-Fc (R&D Systems Cat #140-B1) (UniProt P33681); assay: SPR (Biacore X100); B7-1-Fc injected over molecule held on immobilised lysozyme
[3] = biological target: B7-1-Fc (R&D Systems Cat #140-B1) (UniProt P33681); assay: SPR (Biacore X100); Fab-VLDx1 (LC) held on immobilised lysozyme, B7-1-Fc injected at 25, 12.5, 6.25, 3.125, 1.56 (and 0) ug/ml according to the legend and text
[4] = biological target: B7-1-Fc (R&D Systems Cat #140-B1) (UniProt P33681); assay: SPR (Biacore X100); Fab-VLD captured on a biotin-lysozyme surface, B7-1-Fc as analyte; binding level plotted as % of Rmax against analyte concentration, linear axis 0-30 ug/ml

Measured: binding

B1: D1.3 Fab-VLDx1 (LC) (bispecific antibody)
heavy: EVKLQESGPGLVAPSQSLSITCTVSGFSLTGYGVNWVRQPPGKGLEWLGMIWGDGNTDYNSALKSRLSISKDNSKSQVFLKMNSLHTDDTARYYCARERDYRLDYWGQGTTVTVSSASTKGPSVFPLAPSSKSTSGGTAALGCLVKDYFPEPVTVSWNSGALTSGVHTFPAVLQSSGLYSLSSVVTVPSSSLGTQTYICNVNHKPSNTKVDKRVEPKSCAAAGLGGHHHHHHGAAEQKLISEEDL
light: DIELTQSPASLSASVGETVTITCRASGNIHNYLAWYQQKQGKSPQLLVYYTTTLADGVPSRFSGSGSGTQYSLKINSLQPEDFGSYYCQHFWSTPRTFGGGTKLELKRTVAAPSVFIFPPSDEQLKSGTASVVCLLNNFYPREAKVQWKVDNALQSGNSQESVTEQDSKDSTYSLSSTLTLSKADYEKHKVYACEVTHQGLSSPVTKSFNRGECSGGGGSGGGGSGGGGSGGGGSKAMHVAQPAVVLASSRGIASFVCEYASPGKYTEVRVTVLRQADSQVTEVCAATYMTGNELTFLDDSICTGTSSGNQVNLTIQGLRAMDTGLYICKVELMYPPPYYLGIGNGTQIYVIDPEPSPDSN
binds: all assays above
